Assay results taken from doi:10.1101/2024.12.13.628402 (bioRxiv, 2024).
No constants are given. Whether binding was seen depends on the method and setting. Tags and fused reporters may be left off the sequences shown.

Target: T1, His6-YidC (E. coli, UniProt P25714 1-548)
T1 sequence (looked up): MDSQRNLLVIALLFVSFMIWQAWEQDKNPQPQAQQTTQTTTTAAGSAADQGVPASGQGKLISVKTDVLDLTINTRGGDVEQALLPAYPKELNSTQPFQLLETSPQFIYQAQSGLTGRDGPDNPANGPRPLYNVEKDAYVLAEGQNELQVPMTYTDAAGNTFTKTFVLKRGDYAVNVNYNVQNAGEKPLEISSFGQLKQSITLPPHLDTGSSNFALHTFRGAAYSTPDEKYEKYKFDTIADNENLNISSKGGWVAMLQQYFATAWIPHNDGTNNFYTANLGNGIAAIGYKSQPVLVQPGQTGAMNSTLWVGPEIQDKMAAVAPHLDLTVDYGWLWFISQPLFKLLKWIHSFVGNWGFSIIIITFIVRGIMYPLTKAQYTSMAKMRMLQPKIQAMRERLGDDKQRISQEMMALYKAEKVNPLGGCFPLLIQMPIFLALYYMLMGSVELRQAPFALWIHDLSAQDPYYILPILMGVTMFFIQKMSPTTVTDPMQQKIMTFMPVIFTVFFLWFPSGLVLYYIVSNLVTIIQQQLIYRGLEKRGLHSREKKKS
Experiment: native gel or EMSA

binding: no binding (tested: 3 µg each)
B1: YibN△1-29-His6 (domain or fragment, UniProt P0AG27 30-143)
chain: FKSLTSKVKVITRGEATRLINKEDAVVVDLRQRDDFRKGHIAGSINLLPSEIKANNVGELEKHKDKPVIVVDGSGMQCQEPANALTKAGFAQVFVLKEGVAGWAGENLPLVRGK
